Structures can show the parent of a compound that is named as a salt. The list shows a part of the results. The calls rarely recur for the same compound in another form.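 In K562 cells expressing nanoluciferase-fused kinases, luminescence was recorded at 4 h intervals between 2 and 18 h, normalized as percent of control with DMSO at 100% and a positive control at 0%. A significant (2 sigma) signal drop marks a time point as decreased. The authors' rule for a hit is not shown and takes in more than the number of time points.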
Legend:
Assay in all cases: kinase-Nluc reporter destabilization hit call (1 = scored as downregulated) (binary); higher = compound decreases kinase abundance
Conditions in all cases: K562; 2-18 h
IRAK3 = IRAK3 (UniProt Q9Y616)
JAK1 = JAK1 (UniProt P23458)
LCK = LCK (UniProt P06239)
LIMK1 = LIMK1 (UniProt P53667)
LIMK2 = LIMK2 (UniProt P53671)
LMTK2 = LMTK2 (UniProt Q8IWU2)
LYN = LYN (UniProt P07948)
MAP2K1 = MAP2K1 (UniProt Q02750)
MAP2K2 = MAP2K2 (UniProt P36507)
MAP4K2 = MAP4K2 (UniProt Q12851)

The chains behind the UniProt entries cited, without tags or fusion partners. Where a name states a change or a piece, a line headed by the entry shows the natural chain unless it says otherwise.
UniProt Q9Y616: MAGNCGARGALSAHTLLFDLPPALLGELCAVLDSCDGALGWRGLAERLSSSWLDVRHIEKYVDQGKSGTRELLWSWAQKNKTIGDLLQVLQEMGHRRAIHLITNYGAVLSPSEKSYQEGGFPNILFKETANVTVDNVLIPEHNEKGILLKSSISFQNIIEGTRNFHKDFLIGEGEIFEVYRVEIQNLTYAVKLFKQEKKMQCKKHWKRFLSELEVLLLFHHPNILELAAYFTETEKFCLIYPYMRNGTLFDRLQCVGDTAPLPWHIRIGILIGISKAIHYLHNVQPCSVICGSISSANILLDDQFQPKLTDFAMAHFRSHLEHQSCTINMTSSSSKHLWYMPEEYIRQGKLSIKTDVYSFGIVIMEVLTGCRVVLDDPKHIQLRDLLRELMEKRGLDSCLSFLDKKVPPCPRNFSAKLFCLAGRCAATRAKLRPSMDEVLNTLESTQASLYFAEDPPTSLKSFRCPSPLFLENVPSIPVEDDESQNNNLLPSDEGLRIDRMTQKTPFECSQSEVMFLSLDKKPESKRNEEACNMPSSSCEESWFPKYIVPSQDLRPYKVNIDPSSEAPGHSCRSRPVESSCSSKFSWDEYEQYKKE
UniProt P23458: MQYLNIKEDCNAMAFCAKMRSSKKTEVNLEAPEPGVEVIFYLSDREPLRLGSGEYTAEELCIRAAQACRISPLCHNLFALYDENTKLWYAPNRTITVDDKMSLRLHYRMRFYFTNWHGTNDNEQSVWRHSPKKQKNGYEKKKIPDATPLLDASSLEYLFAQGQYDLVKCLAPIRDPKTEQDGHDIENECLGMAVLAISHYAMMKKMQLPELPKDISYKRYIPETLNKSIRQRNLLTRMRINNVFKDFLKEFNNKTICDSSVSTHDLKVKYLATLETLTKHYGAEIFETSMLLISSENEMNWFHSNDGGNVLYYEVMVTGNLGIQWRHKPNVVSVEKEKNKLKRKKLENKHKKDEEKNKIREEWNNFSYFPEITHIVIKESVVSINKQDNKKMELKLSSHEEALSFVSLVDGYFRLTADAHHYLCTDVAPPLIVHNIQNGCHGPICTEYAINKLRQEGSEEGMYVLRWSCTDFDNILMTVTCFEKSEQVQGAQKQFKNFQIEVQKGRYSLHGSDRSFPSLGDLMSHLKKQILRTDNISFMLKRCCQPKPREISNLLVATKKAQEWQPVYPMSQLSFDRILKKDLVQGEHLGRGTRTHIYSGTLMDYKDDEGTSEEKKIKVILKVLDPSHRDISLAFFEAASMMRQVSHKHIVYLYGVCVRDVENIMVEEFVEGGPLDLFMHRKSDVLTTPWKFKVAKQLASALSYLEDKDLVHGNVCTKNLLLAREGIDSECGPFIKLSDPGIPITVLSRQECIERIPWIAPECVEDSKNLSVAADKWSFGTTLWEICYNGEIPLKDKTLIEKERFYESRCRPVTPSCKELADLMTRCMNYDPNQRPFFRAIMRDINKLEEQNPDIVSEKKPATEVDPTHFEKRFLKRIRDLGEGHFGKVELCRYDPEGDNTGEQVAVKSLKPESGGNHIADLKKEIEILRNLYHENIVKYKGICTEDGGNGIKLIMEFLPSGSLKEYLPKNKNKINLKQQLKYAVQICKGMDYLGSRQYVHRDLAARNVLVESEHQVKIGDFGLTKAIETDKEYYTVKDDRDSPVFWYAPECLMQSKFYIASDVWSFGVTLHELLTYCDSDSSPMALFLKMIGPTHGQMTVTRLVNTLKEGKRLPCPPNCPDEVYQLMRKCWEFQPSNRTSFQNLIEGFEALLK
UniProt P06239: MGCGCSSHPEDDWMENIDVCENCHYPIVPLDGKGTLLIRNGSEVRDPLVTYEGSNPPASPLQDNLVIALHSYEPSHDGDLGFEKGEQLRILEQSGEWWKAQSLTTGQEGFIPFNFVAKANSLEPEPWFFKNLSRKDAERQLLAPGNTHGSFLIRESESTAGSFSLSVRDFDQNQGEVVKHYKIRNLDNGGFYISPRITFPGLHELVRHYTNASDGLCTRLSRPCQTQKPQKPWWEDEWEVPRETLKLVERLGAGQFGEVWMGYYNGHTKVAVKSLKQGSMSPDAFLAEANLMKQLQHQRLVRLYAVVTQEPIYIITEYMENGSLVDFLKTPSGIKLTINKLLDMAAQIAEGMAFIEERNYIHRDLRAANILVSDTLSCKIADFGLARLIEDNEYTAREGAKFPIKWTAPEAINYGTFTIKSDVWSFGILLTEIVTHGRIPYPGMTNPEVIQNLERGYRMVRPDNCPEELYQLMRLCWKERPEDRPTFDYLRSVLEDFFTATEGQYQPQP
UniProt P53667: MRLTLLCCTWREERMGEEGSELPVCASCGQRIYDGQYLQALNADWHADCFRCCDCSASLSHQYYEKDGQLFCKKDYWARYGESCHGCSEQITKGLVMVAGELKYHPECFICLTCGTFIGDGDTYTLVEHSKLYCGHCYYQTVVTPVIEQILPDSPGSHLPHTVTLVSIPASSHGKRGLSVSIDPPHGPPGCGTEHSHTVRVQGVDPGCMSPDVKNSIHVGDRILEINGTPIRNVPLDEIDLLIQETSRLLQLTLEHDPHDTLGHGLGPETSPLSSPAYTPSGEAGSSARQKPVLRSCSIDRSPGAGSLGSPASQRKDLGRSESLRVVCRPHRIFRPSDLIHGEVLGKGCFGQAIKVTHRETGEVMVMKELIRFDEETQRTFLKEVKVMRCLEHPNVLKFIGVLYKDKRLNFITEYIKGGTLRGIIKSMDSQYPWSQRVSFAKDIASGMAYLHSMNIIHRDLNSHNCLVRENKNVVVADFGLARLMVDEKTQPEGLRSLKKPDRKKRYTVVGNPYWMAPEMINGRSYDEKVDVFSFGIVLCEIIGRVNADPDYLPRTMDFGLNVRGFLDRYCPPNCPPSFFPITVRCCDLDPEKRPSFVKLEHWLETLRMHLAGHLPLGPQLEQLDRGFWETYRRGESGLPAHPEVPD
UniProt P53671: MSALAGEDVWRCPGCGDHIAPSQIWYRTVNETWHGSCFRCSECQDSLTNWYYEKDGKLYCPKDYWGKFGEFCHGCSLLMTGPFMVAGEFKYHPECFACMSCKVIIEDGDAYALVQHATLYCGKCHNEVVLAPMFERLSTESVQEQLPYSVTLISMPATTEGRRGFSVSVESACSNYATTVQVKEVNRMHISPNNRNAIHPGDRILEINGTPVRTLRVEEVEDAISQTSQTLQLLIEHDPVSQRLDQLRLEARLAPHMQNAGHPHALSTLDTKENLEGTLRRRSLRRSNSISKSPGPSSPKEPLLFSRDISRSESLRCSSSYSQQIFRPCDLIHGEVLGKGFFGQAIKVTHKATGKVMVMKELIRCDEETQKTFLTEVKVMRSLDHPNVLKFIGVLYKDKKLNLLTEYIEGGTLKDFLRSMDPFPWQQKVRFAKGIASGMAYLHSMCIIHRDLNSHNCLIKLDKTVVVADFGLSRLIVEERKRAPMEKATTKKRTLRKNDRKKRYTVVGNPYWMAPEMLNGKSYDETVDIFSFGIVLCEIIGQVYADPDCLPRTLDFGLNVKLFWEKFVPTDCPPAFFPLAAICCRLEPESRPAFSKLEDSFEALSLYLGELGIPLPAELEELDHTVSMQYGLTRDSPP
UniProt Q8IWU2: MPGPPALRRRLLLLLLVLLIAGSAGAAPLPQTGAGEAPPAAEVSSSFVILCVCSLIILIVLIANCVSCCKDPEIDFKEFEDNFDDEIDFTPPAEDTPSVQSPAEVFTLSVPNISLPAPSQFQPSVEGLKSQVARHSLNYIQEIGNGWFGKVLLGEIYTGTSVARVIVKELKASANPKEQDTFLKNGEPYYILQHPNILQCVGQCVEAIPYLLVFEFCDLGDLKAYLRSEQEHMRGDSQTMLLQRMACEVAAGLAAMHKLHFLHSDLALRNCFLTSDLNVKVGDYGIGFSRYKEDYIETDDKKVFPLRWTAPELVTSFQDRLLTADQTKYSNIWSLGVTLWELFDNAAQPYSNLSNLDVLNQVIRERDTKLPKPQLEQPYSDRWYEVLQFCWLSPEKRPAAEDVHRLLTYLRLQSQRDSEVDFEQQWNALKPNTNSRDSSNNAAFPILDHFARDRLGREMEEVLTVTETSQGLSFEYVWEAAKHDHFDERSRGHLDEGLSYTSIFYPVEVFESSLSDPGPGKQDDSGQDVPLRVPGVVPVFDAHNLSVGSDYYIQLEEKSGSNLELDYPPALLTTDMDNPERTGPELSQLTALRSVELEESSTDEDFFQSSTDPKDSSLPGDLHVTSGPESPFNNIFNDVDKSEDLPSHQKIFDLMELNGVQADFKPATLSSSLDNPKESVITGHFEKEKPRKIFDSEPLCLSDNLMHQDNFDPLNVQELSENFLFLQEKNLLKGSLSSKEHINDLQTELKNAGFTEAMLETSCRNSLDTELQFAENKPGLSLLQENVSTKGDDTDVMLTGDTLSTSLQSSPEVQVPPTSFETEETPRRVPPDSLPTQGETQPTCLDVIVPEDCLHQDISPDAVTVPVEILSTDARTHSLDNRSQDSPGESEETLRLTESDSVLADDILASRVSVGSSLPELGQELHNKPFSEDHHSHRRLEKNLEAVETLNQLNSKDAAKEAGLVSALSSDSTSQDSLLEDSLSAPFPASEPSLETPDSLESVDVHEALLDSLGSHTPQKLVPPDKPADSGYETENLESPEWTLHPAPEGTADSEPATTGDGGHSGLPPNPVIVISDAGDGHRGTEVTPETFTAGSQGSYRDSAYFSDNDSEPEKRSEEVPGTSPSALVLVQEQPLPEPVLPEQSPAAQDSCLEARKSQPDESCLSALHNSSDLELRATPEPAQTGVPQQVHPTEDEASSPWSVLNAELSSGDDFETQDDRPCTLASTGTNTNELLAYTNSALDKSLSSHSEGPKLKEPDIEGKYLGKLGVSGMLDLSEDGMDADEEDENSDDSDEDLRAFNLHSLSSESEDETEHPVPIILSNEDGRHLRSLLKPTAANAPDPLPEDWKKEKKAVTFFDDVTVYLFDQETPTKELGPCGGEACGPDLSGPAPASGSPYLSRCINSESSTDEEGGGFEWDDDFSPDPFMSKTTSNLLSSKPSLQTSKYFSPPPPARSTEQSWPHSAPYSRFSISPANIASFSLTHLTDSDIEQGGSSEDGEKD
UniProt P07948: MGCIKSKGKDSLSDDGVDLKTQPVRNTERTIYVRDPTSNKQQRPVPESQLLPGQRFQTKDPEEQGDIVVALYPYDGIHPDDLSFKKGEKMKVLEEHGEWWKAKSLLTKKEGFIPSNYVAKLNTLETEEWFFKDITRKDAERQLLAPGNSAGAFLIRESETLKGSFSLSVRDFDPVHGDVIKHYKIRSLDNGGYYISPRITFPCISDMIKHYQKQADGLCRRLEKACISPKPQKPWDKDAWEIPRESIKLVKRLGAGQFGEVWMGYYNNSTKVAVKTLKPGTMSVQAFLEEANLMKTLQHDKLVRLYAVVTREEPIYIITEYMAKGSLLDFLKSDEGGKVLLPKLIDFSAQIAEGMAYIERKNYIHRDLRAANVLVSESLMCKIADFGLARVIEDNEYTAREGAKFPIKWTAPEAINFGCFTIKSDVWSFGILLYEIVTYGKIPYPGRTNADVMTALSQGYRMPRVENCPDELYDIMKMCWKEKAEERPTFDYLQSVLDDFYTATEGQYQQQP
UniProt Q12851: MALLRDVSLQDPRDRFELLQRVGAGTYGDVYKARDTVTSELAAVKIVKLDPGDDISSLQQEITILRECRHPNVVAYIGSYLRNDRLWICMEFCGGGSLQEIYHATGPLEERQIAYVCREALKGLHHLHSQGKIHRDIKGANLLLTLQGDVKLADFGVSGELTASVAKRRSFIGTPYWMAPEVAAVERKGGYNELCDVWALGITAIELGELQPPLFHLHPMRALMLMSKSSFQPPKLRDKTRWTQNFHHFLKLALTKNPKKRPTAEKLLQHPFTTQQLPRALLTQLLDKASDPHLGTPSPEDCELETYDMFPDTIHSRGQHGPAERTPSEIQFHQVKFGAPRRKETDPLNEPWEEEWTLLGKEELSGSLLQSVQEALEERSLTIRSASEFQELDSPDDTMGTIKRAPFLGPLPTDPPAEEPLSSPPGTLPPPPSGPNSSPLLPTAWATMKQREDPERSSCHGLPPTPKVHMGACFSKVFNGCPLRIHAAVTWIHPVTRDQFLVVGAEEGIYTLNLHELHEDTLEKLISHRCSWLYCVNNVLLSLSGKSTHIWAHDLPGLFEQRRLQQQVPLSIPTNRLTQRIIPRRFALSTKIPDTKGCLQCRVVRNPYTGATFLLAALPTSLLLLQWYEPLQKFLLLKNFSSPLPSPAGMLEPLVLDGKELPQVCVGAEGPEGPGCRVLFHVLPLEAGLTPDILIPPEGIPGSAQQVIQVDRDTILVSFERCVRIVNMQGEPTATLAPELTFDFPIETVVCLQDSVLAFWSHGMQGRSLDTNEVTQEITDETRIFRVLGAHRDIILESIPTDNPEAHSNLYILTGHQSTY

Measured: kinase-Nluc reporter destabilization hit call

CC(ONC(=O)c1cc(C(F)(F)F)cc(C(F)(F)F)c1)C(=O)Nc1ccc(Cl)cc1 (stereo not given) (2.5 µM)
inactive: IRAK3 = 0 | JAK1 = 0 | LCK 0 | LIMK1 = 0 | LIMK2 = 0 | LMTK2 = 0 | LYN 0 | MAP2K1 = 0 | MAP2K2 = 0 | MAP4K2 = 0

COCCNc1cc(NC(=O)N2CCCc3cc(CN4CCOCC4=O)c(C=O)nc32)ncc1C#N (10 µM)
inactive: IRAK3 = 0 | JAK1 = 0 | LCK 0 | LIMK1 = 0 | LIMK2 = 0 | LMTK2 = 0 | LYN 0 | MAP2K1 = 0 | MAP2K2 = 0 | MAP4K2 = 0

O=C(CCl)c1c[nH]c2ccccc12 (2.5 µM)
inactive: IRAK3 = 0 | JAK1 = 0 | LCK 0 | LIMK1 = 0 | LIMK2 = 0 | LMTK2 = 0 | LYN 0 | MAP2K1 = 0 | MAP2K2 = 0 | MAP4K2 = 0

Cc1cnc(Cl)nc1-c1ccc(N(Cc2ccc(CNC(=O)C(F)F)cc2)C(=O)c2ccc(O)cc2O)cc1 (10 µM)
inactive: IRAK3 = 0 | JAK1 = 0 | LCK 0 | LIMK1 = 0 | LIMK2 = 0 | LMTK2 = 0 | LYN 0 | MAP2K1 = 0 | MAP2K2 = 0 | MAP4K2 = 0

CN(C)CCn1cc2cc(NC(=O)c3cccc(C(F)(F)F)n3)c(C(C)(C)O)cc2n1 (10 µM)
inactive: IRAK3 = 0 | JAK1 = 0 | LCK 0 | LIMK1 = 0 | LIMK2 = 0 | LMTK2 = 0 | LYN 0 | MAP2K1 = 0 | MAP2K2 = 0 | MAP4K2 = 0

O=c1cc(N2CCOCC2)oc2c(-c3cccc4c3sc3ccccc34)cccc12 (10 µM)
inactive: IRAK3 = 0 | JAK1 = 0 | LCK 0 | LIMK1 = 0 | LIMK2 = 0 | LMTK2 = 0 | LYN 0 | MAP2K1 = 0 | MAP2K2 = 0 | MAP4K2 = 0

CNCc1ccccc1Sc1cccc2ccccc12 [IFN alpha-IFNAR-IN-1 (hydrochloride)] (10 µM)
inactive: IRAK3 = 0 | JAK1 = 0 | LCK 0 | LIMK1 = 0 | LIMK2 = 0 | LMTK2 = 0 | LYN 0 | MAP2K1 = 0 | MAP2K2 = 0 | MAP4K2 = 0

CN1CCN(Cc2ccc(-c3cnc4[nH]cc(-c5ccc6[nH]ccc6c5)c4c3)cc2)CC1 (2.5 µM)
inactive: IRAK3 = 0 | JAK1 = 0 | LCK 0 | LIMK1 = 0 | LIMK2 = 0 | LMTK2 = 0 | LYN 0 | MAP2K1 = 0 | MAP2K2 = 0 | MAP4K2 = 0

Nc1ccc(-c2nc3ccc(-c4nc5ccc(N)cc5[nH]4)cc3[nH]2)cc1 (10 µM)
inactive: IRAK3 = 0 | JAK1 = 0 | LCK 0 | LIMK1 = 0 | LIMK2 = 0 | LMTK2 = 0 | LYN 0 | MAP2K1 = 0 | MAP2K2 = 0 | MAP4K2 = 0

COc1ccc(Br)c(C=O)c1O [6-Bromo-2-hydroxy-3-methoxybenzaldehyde] (10 µM)
inactive: IRAK3 = 0 | JAK1 = 0 | LCK 0 | LIMK1 = 0 | LIMK2 = 0 | LMTK2 = 0 | LYN 0 | MAP2K1 = 0 | MAP2K2 = 0 | MAP4K2 = 0

CC(=O)O/N=C1/C(c2c(O)[nH]c3cc(Br)ccc23)=Nc2ccccc21 [BIO-acetoxime] (10 µM)
inactive: IRAK3 = 0 | JAK1 = 0 | LCK 0 | LIMK1 = 0 | LIMK2 = 0 | LMTK2 = 0 | LYN 0 | MAP2K1 = 0 | MAP2K2 = 0 | MAP4K2 = 0

CC(C)(C)S(=O)(=O)c1cc2c(Nc3ccc4scnc4c3)ncnc2cc1OCCOP(=O)(O)O (2 µM)
inactive: IRAK3 = 0 | JAK1 = 0 | LCK 0 | LIMK1 = 0 | LIMK2 = 0 | LMTK2 = 0 | LYN 0 | MAP2K1 = 0 | MAP2K2 = 0 | MAP4K2 = 0

Cc1ncc(-c2cc(F)c(O)c(F)c2)cc1-c1cc(F)c(O)c(F)c1 (10 µM)
inactive: IRAK3 = 0 | JAK1 = 0 | LCK 0 | LIMK1 = 0 | LIMK2 = 0 | LMTK2 = 0 | LYN 0 | MAP2K1 = 0 | MAP2K2 = 0 | MAP4K2 = 0

O=C(O)/C=C(\CCc1ccc(Cl)cc1)c1ccccc1 (10 µM)
inactive: IRAK3 = 0 | JAK1 = 0 | LCK 0 | LIMK1 = 0 | LIMK2 = 0 | LMTK2 = 0 | LYN 0 | MAP2K1 = 0 | MAP2K2 = 0 | MAP4K2 = 0

O=C1OC(COc2ccccc2[N+](=O)[O-])CC1Cc1ccccc1 (stereo not given) (10 µM)
inactive: IRAK3 = 0 | JAK1 = 0 | LCK 0 | LIMK1 = 0 | LIMK2 = 0 | LMTK2 = 0 | LYN 0 | MAP2K1 = 0 | MAP2K2 = 0 | MAP4K2 = 0

CNC(=O)CN1CCC(Oc2cc3c(Nc4cccc(Cl)c4F)ncnc3cc2OC)CC1 [Sapitinib] (10 µM)
inactive: IRAK3 = 0 | JAK1 = 0 | LCK 0 | LIMK1 = 0 | LIMK2 = 0 | LMTK2 = 0 | LYN 0 | MAP2K1 = 0 | MAP2K2 = 0 | MAP4K2 = 0

CNCCOc1ccccc1C1(Nc2nccn(-c3cc(C(=O)NC4CC4)cc(F)c3C)c2=O)CC1 (10 µM)
inactive: IRAK3 = 0 | JAK1 = 0 | LCK 0 | LIMK1 = 0 | LIMK2 = 0 | LMTK2 = 0 | LYN 0 | MAP2K1 = 0 | MAP2K2 = 0 | MAP4K2 = 0

Part of the list above in order of SMILES length, smallest number first:
O=C(CCl)c1c[nH]c2ccccc12 (2.5 µM)
inactive: IRAK3 = 0 | JAK1 = 0 | LCK 0 | LIMK1 = 0 | LIMK2 = 0 | LMTK2 = 0 | LYN 0 | MAP2K1 = 0 | MAP2K2 = 0 | MAP4K2 = 0

CNCc1ccccc1Sc1cccc2ccccc12 [IFN alpha-IFNAR-IN-1 (hydrochloride)] (10 µM)
inactive: IRAK3 = 0 | JAK1 = 0 | LCK 0 | LIMK1 = 0 | LIMK2 = 0 | LMTK2 = 0 | LYN 0 | MAP2K1 = 0 | MAP2K2 = 0 | MAP4K2 = 0

O=C(O)/C=C(\CCc1ccc(Cl)cc1)c1ccccc1 (10 µM)
inactive: IRAK3 = 0 | JAK1 = 0 | LCK 0 | LIMK1 = 0 | LIMK2 = 0 | LMTK2 = 0 | LYN 0 | MAP2K1 = 0 | MAP2K2 = 0 | MAP4K2 = 0

CC(=O)O/N=C1/C(c2c(O)[nH]c3cc(Br)ccc23)=Nc2ccccc21 [BIO-acetoxime] (10 µM)
inactive: IRAK3 = 0 | JAK1 = 0 | LCK 0 | LIMK1 = 0 | LIMK2 = 0 | LMTK2 = 0 | LYN 0 | MAP2K1 = 0 | MAP2K2 = 0 | MAP4K2 = 0

COCCNc1cc(NC(=O)N2CCCc3cc(CN4CCOCC4=O)c(C=O)nc32)ncc1C#N (10 µM)
inactive: IRAK3 = 0 | JAK1 = 0 | LCK 0 | LIMK1 = 0 | LIMK2 = 0 | LMTK2 = 0 | LYN 0 | MAP2K1 = 0 | MAP2K2 = 0 | MAP4K2 = 0

CC(C)(C)S(=O)(=O)c1cc2c(Nc3ccc4scnc4c3)ncnc2cc1OCCOP(=O)(O)O (2 µM)
inactive: IRAK3 = 0 | JAK1 = 0 | LCK 0 | LIMK1 = 0 | LIMK2 = 0 | LMTK2 = 0 | LYN 0 | MAP2K1 = 0 | MAP2K2 = 0 | MAP4K2 = 0

Cc1cnc(Cl)nc1-c1ccc(N(Cc2ccc(CNC(=O)C(F)F)cc2)C(=O)c2ccc(O)cc2O)cc1 (10 µM)
inactive: IRAK3 = 0 | JAK1 = 0 | LCK 0 | LIMK1 = 0 | LIMK2 = 0 | LMTK2 = 0 | LYN 0 | MAP2K1 = 0 | MAP2K2 = 0 | MAP4K2 = 0

(more compounds)

CC(C)n1c(CO)nc2c(F)cc(-c3nc(Nc4ccc(CN5CCNCC5)cn4)ncc3F)cc21 (10 µM)
inactive: IRAK3 = 0 | JAK1 = 0 | LCK 0 | LIMK1 = 0 | LIMK2 = 0 | LMTK2 = 0 | LYN 0 | MAP2K1 = 0 | MAP2K2 = 0 | MAP4K2 = 0

CCc1cc(Nc2nccc(-c3c(-c4ccc(OC)c(C(=O)Nc5c(F)cccc5F)c4)nc4ccccn34)n2)c(OC)cc1N1CCC(N2CCN(S(C)(=O)=O)CC2)CC1 (2.5 µM)
inactive: IRAK3 = 0 | JAK1 = 0 | LCK 0 | LIMK1 = 0 | LIMK2 = 0 | LMTK2 = 0 | LYN 0 | MAP2K1 = 0 | MAP2K2 = 0 | MAP4K2 = 0

CN(C)c1cc[n+](Cc2ccc(OCCOc3ccc(C[n+]4ccc(N(C)C)cc4)cc3)cc2)cc1 (10 µM)
inactive: IRAK3 = 0 | JAK1 = 0 | LCK 0 | LIMK1 = 0 | LIMK2 = 0 | LMTK2 = 0 | LYN 0 | MAP2K1 = 0 | MAP2K2 = 0 | MAP4K2 = 0

CN1CCC(Nc2ccc(C(=O)Nc3cc(-c4ccc5c(c4)OCO5)[nH]n3)cc2)CC1 (10 µM)
inactive: IRAK3 = 0 | JAK1 = 0 | LCK 0 | LIMK1 = 0 | LIMK2 = 0 | LMTK2 = 0 | LYN 0 | MAP2K1 = 0 | MAP2K2 = 0 | MAP4K2 = 0

S=C(NCc1ccc2c(c1)OCO2)N1CCN(c2ncnc3c2oc2ccccc23)CC1 [Amuvatinib] (2.5 µM)
inactive: IRAK3 = 0 | JAK1 = 0 | LCK 0 | LIMK1 = 0 | LIMK2 = 0 | LMTK2 = 0 | LYN 0 | MAP2K1 = 0 | MAP2K2 = 0 | MAP4K2 = 0

O=C(Nc1ccnc(NC(=O)C2CC2)c1)c1c(Cl)cccc1Cl (10 µM)
inactive: IRAK3 = 0 | JAK1 = 0 | LCK 0 | LIMK1 = 0 | LIMK2 = 0 | LMTK2 = 0 | LYN 0 | MAP2K1 = 0 | MAP2K2 = 0 | MAP4K2 = 0

Cc1n[nH]c2ncc(C(=O)N3CCC[C@H]3c3ccc(Cl)cc3)cc12 (10 µM)
inactive: IRAK3 = 0 | JAK1 = 0 | LCK 0 | LIMK1 = 0 | LIMK2 = 0 | LMTK2 = 0 | LYN 0 | MAP2K1 = 0 | MAP2K2 = 0 | MAP4K2 = 0

Cc1ccc(C2CC(=O)NC(SCC(=O)Nc3nccs3)=C2C#N)cc1 (stereo not given) [Necrostatin-34] (10 µM)
inactive: IRAK3 = 0 | JAK1 = 0 | LCK 0 | LIMK1 = 0 | LIMK2 = 0 | LMTK2 = 0 | LYN 0 | MAP2K1 = 0 | MAP2K2 = 0 | MAP4K2 = 0

COc1cc(N2CCC(N3CCN(C)CC3)CC2)ccc1Nc1ncnc(Nc2ccccc2S(=O)(=O)C(C)C)n1 (10 µM)
inactive: IRAK3 = 0 | JAK1 = 0 | LCK 0 | LIMK1 = 0 | LIMK2 = 0 | LMTK2 = 0 | LYN 0 | MAP2K1 = 0 | MAP2K2 = 0 | MAP4K2 = 0

CN(C[C@@H]1COCCO1)S(=O)(=O)Nc1ccc2ccc3ncc(-c4cnn(C)c4)cc3c(=O)c2c1 (2.5 µM)
inactive: IRAK3 = 0 | JAK1 = 0 | LCK 0 | LIMK1 = 0 | LIMK2 = 0 | LMTK2 = 0 | LYN 0 | MAP2K1 = 0 | MAP2K2 = 0 | MAP4K2 = 0

NC(=O)c1cnc(N[C@@H]2CCCC[C@@H]2N)nc1Nc1cccc(-n2nccn2)c1 (2.5 µM)
inactive: IRAK3 = 0 | JAK1 = 0 | LCK 0 | LIMK1 = 0 | LIMK2 = 0 | LMTK2 = 0 | LYN 0 | MAP2K1 = 0 | MAP2K2 = 0 | MAP4K2 = 0

O=C1Cc2ccccc2N1 [Oxindole] (10 µM)
inactive: IRAK3 = 0 | JAK1 = 0 | LCK 0 | LIMK1 = 0 | LIMK2 = 0 | LMTK2 = 0 | LYN 0 | MAP2K1 = 0 | MAP2K2 = 0 | MAP4K2 = 0

Oc1ccc(-c2cnc3ccc(NCc4ccco4)nn23)cc1 [IRAK inhibitor 2] (2.5 µM)
inactive: IRAK3 = 0 | JAK1 = 0 | LCK 0 | LIMK1 = 0 | LIMK2 = 0 | LMTK2 = 0 | LYN 0 | MAP2K1 = 0 | MAP2K2 = 0 | MAP4K2 = 0
